In patent US20230235004A1:
Results are given in words; binding and its absence hold for the method and conditions named. Binding can be weak; no strength is given.

Molecular target: cyno MAdCAM protein (cyno)
Experiment: Octet

binding	Binder
binds	MAdCAM antibody Table 1 clone 1 (scFv) scFv: EVQLLESGGGLVQPGGSLRLSCAASGFTFSSYGMHWVRQAPGKGLEWVAVISDDGSDKYYADSVKGRFTISRDNSKNTLYLQMNSLRAEDTAVYYCTTSKYYYYYGMDVWGQGTTVTVSSGGGGSGGGGSGGGGSGGGGSDIQMTQSPSSLSASVGDRVTITCQASQDISKSLNWYQQKPGKAPKLLIYAASSLQSGVPSRFSGSGSGTDFTLTISSLQPEDFATYYCQQGYSTPLTFGGGTKVEIK
binds	MAdCAM antibody Table 1 clone 4 (scFv) scFv: QVQLVQSGAEVKKPGASVKVSCKASGGTFSSYAISWVRQAPGQGLEWMGSINPSGDTTSYAQKFQGRVTMTRDTSTSTVYMELSSLRSEDTAVYYCAKDKAQWLVGYFDYWGQGTLVTVSSGGGGSGGGGSGGGGSGGGGSDIQMTQSPSSLSASVGDRVTITCQASQDISNSLNWYQQKPGKAPKLLIYAASSLQSGVPSRFSGSGSGTDFTLTISSLQPEDFATYYCQQSYSSVITFGQGTKVEIK
binds	MAdCAM antibody Table 1 clone 6 (scFv) scFv: EVQLLESGGGLVQPGGSLRLSCAASGFTFNNYAFHWVRQAPGKGLEWVSRINSYGTSTTYADSVKGRFTISRDNSKNTLYLQMNSLRAEDTAVYYCAREGPVAGYWYFDLWGQGTLVTVSSGGGGSGGGGSGGGGSGGGGSDIQMTQSPSSLSASVGDRVTITCRASQIIGTNLAWYQQKPGKAPKLLIYGASSLQSGVPSRFSGSGSGTDFTLTISSLQPEDFATYYCQQSYRLPFTFGQGTKVEIK
binds	MAdCAM antibody Table 1 clone 7 (scFv) scFv: QVQLVQSGAEVKKPGASVKVSCKASGYTFTGYHIHWVRQAPGQGLEWMGIINPSGGSTIYAQKFQGRVTMTRDTSTSTVYMELSSLRSEDTAVYYCAKDWSSWYLGPFDYWGQGTLVTVSSGGGGSGGGGSGGGGSGGGGSDIQMTQSPSSLSASVGDRVTITCRASQNISSSLNWYQQKPGKAPKLLIYAASSLQSGVPSRFSGSGSGTDFTLTISSLQPEDFATYYCQQSYTTPYTFGQGTKVEIK
binds	MAdCAM antibody Table 1 clone 5 (scFv) scFv: EVQLLESGGGLVQPGGSLRLSCAASGFTFSSYWMHWVRQAPGKGLEWVSSISPGGSNIDYADSVKGRFTISRDNSKNTLYLQMNSLRAEDTAVYYCAREVQLSHYDYWGQGTLVTVSSGGGGSGGGGSGGGGSGGGGSDIQMTQSPSSLSASVGDRVTITCRASQGISNSLAWYQQKPGKAPKLLIYGASSLQSGVPSRFSGSGSGTDFTLTISSLQPEDFATYYCQQANSFPFTFGQGTKVEIK
binds	MAdCAM Antibody Table 2 clone 82 (antibody, V domains shown) VH: QVQLVQSGAEVKKPGASVKVSCKASGYTFTRHWIHWVRQAPGQGLEWMGWINVKTGGAGYAQKFQGRVTMTRDTSTSTVYMELSSLRSEDTAVYYCARESSGWYGTDVWGQGTTVTVSS VL: DIQMTQSPSSLSASVGDRATITCRASQSISNYLAWYQQKPGKAPKLLIYAASSLQSGVPSRFSGSGSGTDFTLTISSLQPEDFATYYCQQSNSFPLTFGGGTKVEIK
binds	MAdCAM antibody Table 1 clone 9 (scFv) scFv: EVQLLESGGGLVQPGGSLRLSCAASGFTFSDYYMNWVRQAPGKGLEWVSVIGESGGSTYYADSVKGRFTISRDNSKNTLYLQMNSLRAEDTAVYYCAADPVSRWPKHGGGDYWGQGTLVTVSSGGGGSGGGGSGGGGSGGGGSDIQMTQSPSSLSASVGDRVTITCRASQGISSSLAWYQQKPGKAPKLLIYAASTLQSGVPSRFSGSGSGTDFTLTISSLQPEDFATYYCQQSYSTPWTFGQGTKVEIK
binds	MAdCAM Antibody Table 2 clone 83 (antibody, V domains shown) VH: EVQLLESGGGLVQPGGSLRLSCAASGFTFSSYWMHWVRQAPGKGLEWVAAISYDGKYKDYEDSVKGRFTISRDNSKNTLYLQMNSLRAEDTAVYYCARENKQWLASFDYWGQGTLVTVSS VL: DIQMTQSPSSLSASVGDRVTITCQASQDISNFVNWYQQKPGKAPKLLIYAANLRSGVPSRFSGSGSGTDFTLTISSLQPEDFATYYCQQANSFPVTFGPGTKVDIK
binds	MAdCAM Antibody Table 2 clone 84 (antibody, V domains shown) VH: QVQLVQSGAEVKKPGASVKVSCKASGGTFSSSAISWVRQAPGQGLEWMGWISAYNGYTNYAQKFQGRVTMTRDTSTSTVYMELSSLRSEDTAVYYCASRVHSGGSYPDDYWGQGTLVTVSS VL: DIQMTQSPSSLSASVGDRVTITCQASEHIYNYLNWYQQKPGKAPKLLIYAASSLQSGVPSRFSGSGSGTDFTLTISSLQPEDFATYYCQQTDSIPITFGQGTKVEIK
binds	MAdCAM antibody Table 1 clone 2 (scFv) scFv: QVQLVQSGAEVKKPGASVKVSCKASGYPFIGYYLHWVRQAPGQGLEWMGIINPSGGSTSYAQKFQGRVTMTRDTSTSTVYMELSSLRSEDTAVYYCAREGRLSYGMDAWGQGTLVTVSSGGGGSGGGGSGGGGSGGGGSDIQMTQSPSSLSASVGDRVTITCRASQSISSYLAWYQQKPGKAPKLLIYGASTLESGVPSRFSGSGSGTDFTLTISSLQPEDFATYYCQQTWGPPFTFGQGTKLEIK

More lines, now with the values behind:

Binder	binding
MAdCAM Antibody Table 2 clone 63 (antibody, V domains shown) VH: EVQLLESGGGLVQPGGSLRLSCAASGFTFNNYGMNWVRQAPGKGLEWVSRINSDGSSTSYADSVKGRFTISRDNSKNTLYLQMNSLRAEDTAVYYCARGAYYYYYMDVWGQGTLVTVSS VL: EIVMTQSPATLSVSPGERATLSCRASQSVSGSYLAWYQQKPGQAPRLLIYATSSRASGIPARFSGSGSGTEFTLTISSLQSEDFAVYYCQQYYSGLTFGQGTKVEIK	binds
MAdCAM Antibody Table 2 clone 65 (antibody, V domains shown) VH: QVQLVQSGAEVKKPGASVKVSCKASGYTFTSYDINWVRQAPGQGLEWMGWMNPNSGNTGYAQKFQGRVTMTRDTSTSTVYMELSSLRSEDTAVYYCAKDSDYSNLLWDYWGQGTLVTVSS VL: DIQMTQSPSSLSASVGDRVTITCRASQDITNDLGWYQQKPGKAPKLLIYQASSLESGVPSRFSGSGSGTDFTLTISSLQPEDFATYYCQQSYTIPLTFGQGTKVEIK	binds
MAdCAM Antibody Table 2 clone 7 (antibody, V domains shown) VH: EVQLLESGGGLVQPGGSLRLSCAASGFTFSDYQMSWVRQAPGKGLEWVAIISHADGGFKDYADSVKGRFTISRDNSKNTLYLQMNSLRAEDTAVYYCAKPYSSGWSAVYYFDYWGQGTLVTVSS VL: DIQMTQSPSSLSASVGDRVTITCRASRGITNDLGWYQQKPGKAPKLLIYAASTLQSGVPSRFSGSGSGTDFTLTISSLQPEDFATYYCQQAYSFPWTFGQGTKVEIK	no binding
MAdCAM Antibody Table 2 clone 23 (antibody, V domains shown) VH: EVQLLESGGGLVQPGGSLRLSCAASGFTFDDYAMHWVRQAPGKGLEWVSYIDTSSSHLYYADSVKGRFTISRDNSKNTLYLQMNSLRAEDTAVYYCARDEAAAGYYGMDVWGQGTTVTVSS VL: DIQMTQSPSSLSASVGDRVTITCQAGQDISNYLNWYQQKPGKAPKLLIYDASNLETGVPSRFSGSGSGTDFTLTISSLQPEDFATYYCQQTYSTPITFGQGTKLEIK	binds
MAdCAM Antibody Table 2 clone 76 (antibody, V domains shown) VH: EVQLLESGGGLVQPGGSLRLSCAASGFTFDDYTMHWVRQAPGKGLEWVSDISGSGGSTYYADSVKGRFTISRDNSKNTLYLQMNSLRAEDTAVYYCAKDVVVAGTPLHFDYWGQGTLVTVSS VL: DIQMTQSPSSLSASVGDRVTITCQASQDISNYLNWYQQKPGKAPKLLIYAASYLQSGVPSRFSGSGSGTDFTLTISSLQPEDFATYYCQQAHNYPITFGQGTRLEIK	binds
MAdCAM Antibody Table 2 clone 60 (antibody, V domains shown) VH: EVQLLESGGGLVQPGGSLRLSCAASGFTFSDHGMHWVRQAPGKGLEWVSVIYGGESTYYADSVKGRFTISRDNSKNTLYLQMNSLRAEDTAVYYCARDPAVAGGGIFDYWGQGTLVTVSS VL: DIQMTQSPSSLSASVGDRVTITCRASQGISNYLAWYQQKPGKAPKLLIYDASNLETGVPSRFSGSGSGTDFTLTISSLQPEDFATYYCQQSYSTCYTFGQGTKLEIK	binds
MAdCAM Antibody Table 2 clone 79 (antibody, V domains shown) VH: EVQLLESGGGLVKPGGSLRLSCAASGFTFDDYAMHWVRQAPGKGLEWVASITSSSAFIDYAASVKGRFTISRDDSKNTLYLQMNSLKTEDTAVYYCARERVDWNSYFDLWGRGTLVTVSS VL: EIVMTQSPATLSVSPGERATLSCRASQGISNSYLAWYQQKPGQAPRLLIYGASTRATGIPARFSGSGSGTEFTLTISSLQSEDFAVYYCQQYYTYPPTFGPGTKVDIK	binds
MAdCAM Antibody Table 2 clone 20 (antibody, V domains shown) VH: EVQLLESGGGLVQPGGSLRLSCAASGFTFSDSAMHWVRQAPGKGLEWVSAISGSGSTIYYADSVKGRFTISRDNSKNTLYLQMNSLRAEDTAVYYCVSDIAVAGHWYFDLWGRGTLVTVSS VL: DIQMTQSPSSLSASVGDRVTITCRASQSISTFLNWYQQKPGKAPKLLIYAASRLEGGVPSRFSGSGSGTDFTLTISSLQPEDFATYYCQQANSFPLTFGPGTKVDIK	binds
MAdCAM Antibody Table 2 clone 55 (antibody, V domains shown) VH: EVQLLESGGGLVQPGGSLRLSCAASGFTFDDFAMHWVRQAPGKGLEWVSGISGNGDSRYYADSVKGRFTISRDNSKNTLYLQMNSLRAEDTAVYYCARDASYGGNYGMDVWGQGTTVTVSS VL: DIQMTQSPSSLSASVGDRVTITCQASQDIRNYLNWYQQKPGKAPKLLIYKASTLESGVPSRFSGSGSGTDFTLTISSLQPEDFATYYCQQANSFPLTFGPGTKVDIK	binds
MAdCAM Antibody Table 2 clone 74 (antibody, V domains shown) VH: QVQLVQSGAEVKKPGASVKVSCKASGYTFTGYYMHWVRQAPGQGLEWMGIINPSGGNTKYAQKFQGRVTMTRDTSTSTVYMELSSLRSEDTAVYYCTTADYYYYMDVWGKGTTVTVSS VL: DIQMTQSPSSLSASVGDRVTITCRASQGISNYLAWYQQKPGKAPKLLIYAASSLQSGVPSRFSGSGSGTDFTLTISSLQPEDFATYYCQQYYSNADFGQGTKVEIK	binds
MAdCAM Antibody Table 2 clone 30 (antibody, V domains shown) VH: EVQLLESGGGLVQPGGSLRLSCAASGFTFSSYAMHWVRQAPGKGLEWVSGISGSGGSAYYADSVKGRFTISRDNSKNTLYLQMNSLRAEDTAVYYCATSQAPVDYYYYGMDVWGQGTTVTVSS VL: DIQMTQSPSSLSASVGDRVTITCRASQSISSWLAWYQQKPGKAPKLLIYAASNLQRGVPSRFSGSGSGTDFTLTISSLQPEDFATYYCQQSYSIPITFGQGTKVEIK	binds
